From paper PMC12664368
These are yes or no findings as the source states them, for the method shown. In cells and extracts the contact can be indirect. Some binding calls cover weakened binding; strength is not graded here.

Assays:
[1] = biological target: T1, tumour necrosis factor receptor-associated protein 1 (TRAP1) (mouse (endogenous in Panc02)) (UniProt Q9CQN1); test: co-IP; antibodies against ABTB2 and TRAP1, each protein in turn bait or prey, followed by western blotting
T1 sequence: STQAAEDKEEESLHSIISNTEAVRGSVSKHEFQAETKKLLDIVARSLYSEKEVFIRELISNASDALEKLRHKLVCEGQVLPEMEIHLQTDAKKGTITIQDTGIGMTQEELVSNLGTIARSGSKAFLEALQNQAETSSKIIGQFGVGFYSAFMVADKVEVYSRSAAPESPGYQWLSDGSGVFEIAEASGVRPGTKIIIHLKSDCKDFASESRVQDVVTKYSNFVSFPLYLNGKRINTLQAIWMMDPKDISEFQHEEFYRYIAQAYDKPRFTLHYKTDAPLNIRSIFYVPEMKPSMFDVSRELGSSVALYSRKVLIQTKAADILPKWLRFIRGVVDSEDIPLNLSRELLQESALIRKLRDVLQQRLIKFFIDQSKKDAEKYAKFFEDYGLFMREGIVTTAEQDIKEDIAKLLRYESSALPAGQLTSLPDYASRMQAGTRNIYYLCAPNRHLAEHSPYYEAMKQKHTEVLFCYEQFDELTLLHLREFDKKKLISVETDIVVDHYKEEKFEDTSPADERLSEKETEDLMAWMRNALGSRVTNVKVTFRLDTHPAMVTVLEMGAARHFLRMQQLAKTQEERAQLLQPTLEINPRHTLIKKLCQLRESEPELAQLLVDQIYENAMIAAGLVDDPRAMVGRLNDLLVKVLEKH

[2] = biological target: ankyrin repeat and BTB domain-containing protein 2 (ABTB2) (UniProt Q7TQI7); test: as above

In the case of “ankyrin repeat and BTB domain-containing protein 2 (ABTB2) (from UniProt Q7TQI7 1-1024)”, the binding [1] is reported as “binds”.

B1: tumour necrosis factor receptor-associated protein 1 (TRAP1) (protein, UniProt Q9CQN1 61-706)
chain: T1 sequence
B1 was tested, and the binding [2] was “binds”.
